# Library screening results

The chains behind the UniProt entries cited, without tags or fusion partners.
UniProt E9BF75, entry or part of it: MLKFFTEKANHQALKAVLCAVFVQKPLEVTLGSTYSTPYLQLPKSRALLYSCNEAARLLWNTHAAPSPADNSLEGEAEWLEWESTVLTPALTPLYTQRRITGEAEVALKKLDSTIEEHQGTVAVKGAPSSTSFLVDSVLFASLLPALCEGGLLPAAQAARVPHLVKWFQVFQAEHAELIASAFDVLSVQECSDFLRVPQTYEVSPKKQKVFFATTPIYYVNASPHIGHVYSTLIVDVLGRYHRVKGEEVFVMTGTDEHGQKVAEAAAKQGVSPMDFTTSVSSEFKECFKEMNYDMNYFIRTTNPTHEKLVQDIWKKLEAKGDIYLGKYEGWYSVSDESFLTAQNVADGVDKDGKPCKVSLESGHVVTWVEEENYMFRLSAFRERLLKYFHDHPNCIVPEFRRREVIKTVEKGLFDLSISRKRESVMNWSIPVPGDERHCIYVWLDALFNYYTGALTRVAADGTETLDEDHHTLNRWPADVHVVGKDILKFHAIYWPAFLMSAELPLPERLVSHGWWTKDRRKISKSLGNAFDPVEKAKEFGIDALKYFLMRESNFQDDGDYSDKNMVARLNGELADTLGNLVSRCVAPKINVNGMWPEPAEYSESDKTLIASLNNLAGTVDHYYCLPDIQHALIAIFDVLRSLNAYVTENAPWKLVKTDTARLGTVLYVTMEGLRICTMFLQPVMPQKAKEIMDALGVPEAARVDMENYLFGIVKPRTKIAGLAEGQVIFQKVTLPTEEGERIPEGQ

Source: ChEMBL document CHEMBL3988442, “University of Dundee, Small-Polar-MMV Screening Library” (2021).

All values are in %.
The record does not define 0% and 100%; most values in the screen are far below 50% and negative numbers occur (in some assays of this library far below -100).
Compounds were drawn at random from those tested, without regard to their results.
A dash means the value is not listed here; it may have been measured.

Mtb heat-shock: 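Assay on Mycobacterium tuberculosis, filed only as a heat shock assay from Cornell; the read-out is not stated. The concentration is filed as 10 mM, unlikely as a test dose, so the dose is not known. The record gives no direction; compounds that gave an IC50 in retests scored well above the rest, so higher reads as stronger inhibition. About 69,000 compounds were tested under these conditions; 1.4% (about 930) showed 50% or more at least once.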
LdMetRS: 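Methionyl-tRNA synthetase (putative), Leishmania donovani (UniProt E9BF75). Primary screen of methionyl-tRNA synthetase; the read-out is not stated. The test concentration is not given. Values are per cent inhibition. About 68,000 compounds were tested under these conditions; 0.035% (about 24) showed 50% or more at least once.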
Mtb growth Cornell: 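Whole-cell assay for inhibitors of Mycobacterium tuberculosis growth, labelled Cornell in the record; the read-out is not stated. The concentration is filed as 10 mM, unlikely as a test dose, so the dose is not known. Higher means stronger inhibition (inferred from two other growth screens of the library). Size under these conditions: about 53,000 compounds, about 900 of them at 50% or above in at least one test.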

SMILES,Mtb heat-shock,LdMetRS,Mtb growth Cornell
CC(C)N1CCCC(C(=O)NCCc2csc(-c3ccncc3)n2)C1 (stereo not given),-19.57%,7.902%,-0.6779%
Cn1c(CN2CCOCC2)nnc1C1CCCN(CC(N)=O)C1 (stereo not given),-2.68%,5.495%,-
NCC1(CN2CCOCC2)CCCCC1,-43.68%,-0.274%,-
CC(C)Oc1cccc(C(=O)C2CCCN(C(=O)c3ccccn3)C2)c1 (stereo not given),-4.669%,14.86%,-
COc1ccc2c(c1)CN(Cc1nc3c(cnn3C)c(=O)[nH]1)CC2,-0.696%,7.981%,-13.29%
Cc1ccc(-c2nc(CCNC(=O)CCN3CCOC3=O)co2)cc1,1.86%,11.89%,-
CCCc1nc(CNC(C)Cn2cccn2)cs1 (stereo not given),69.81%,13.19%,-
CC(CNC(=O)Nc1cn[nH]c1)N1CCOCC1 (stereo not given),2.531%,6.25%,-
O=C(c1cccc(F)c1)N1CCCN(Cc2cscn2)CC1,-28.91%,11.48%,-
O=C(NC1CCN(c2ncccn2)CC1)c1cccc(-n2ccnc2)c1,-9.849%,25%,-
O=C(c1ccccn1)N1C[C@@H]2CC[C@H](C1)N(C(=O)CCC(F)(F)F)C2,-,6.02%,-
[H][C@]12CC[C@]([H])(CN(C(=O)C3CCC3)C1)N(C(=O)c1ccc(OCC)cc1)C2,-3.21%,-,18.36%
COc1ccc(Cn2c(Cc3c(C)n[nH]c3C)n[nH]c2=O)cc1,-11.47%,9.322%,-20.49%
CCn1ncc2c1C(COC)CN(Cc1cccnc1)C2.O=C(O)C(F)(F)F.O=C(O)C(F)(F)F.O=C(O)C(F)(F)F (stereo not given),-20.09%,-,-
CN(C)S(=O)(=O)c1ccc(CSCC(=O)NC(C)(C)C)o1,15.42%,7.971%,-8.603%
Cc1csc(N2CCN(C(=O)CCNc3ncccn3)CC2)n1,11.23%,13.73%,34.92%
c1ccc(-c2nccc(N3CCc4c(ncn4C4CC4)C3)n2)cc1,22.34%,20.74%,-
CC(NC(=O)NCCCn1ccnc1)c1nncn1C (stereo not given),0.1199%,22.58%,17.99%
CNC(=O)c1ccc(C(=O)N2CCCC(n3ccnc3)C2)cn1 (stereo not given),-18.15%,11.68%,-55.65%
Cc1ccc(C(=O)Nc2nnc(C(C)C)s2)c(-n2cnnn2)c1C,2.777%,13.44%,-16.3%
Cc1nc(NC(=O)c2ccc(-n3ncc(C#N)c3N)cc2)sc1C,-11.32%,25.63%,-
COC(=O)c1sccc1S(=O)(=O)N1CCC(Oc2cccc(C)n2)CC1,13.13%,12.24%,12.2%
O=C(c1cccnc1)N1CCN2C(=O)N(Cc3ccc(F)cc3)C[C@H]2C1,-,3.846%,-
N#Cc1ccc(N2CCN(c3cnccn3)CC2)cc1C(F)(F)F,-18.28%,16.75%,8.83%
CCn1nc2c(cc1=O)CN(c1ncnc3ccsc13)CC2,2.947%,12.1%,-
O=C(CCN1CCNCC1)N1CCC2(CC1)c1ccccc1CC2O (stereo not given),0.1895%,14.72%,28.79%
CCCN(C(=O)c1cccnc1)c1nc2c(s1)CCc1c-2cnn1C,19.23%,19.21%,30.71%
CCOc1cc2c(cc1CNC(Cc1cccs1)c1nccs1)OCO2 (stereo not given),-,17.7%,-
Cc1cc(C)cc(C(C)NCc2nnc(C)s2)c1 (stereo not given),-23.52%,13.17%,20.64%
CN1C(=O)C2(CC(=O)Nc3[nH]ncc32)c2ccc(F)cc21 (stereo not given),9.807%,2.915%,10.37%
C[C@H]1CN2C[C@H](O)CC2CN1Cc1ccc2nccnc2c1.Cl (stereo not given in full),2.113%,-,-4.252%
Cc1cc(-c2cnn(CCNC(=O)c3cc[nH]n3)c2C2CC2)on1,53.69%,-3.955%,-24.35%
CN(C)CCCN(CCC#N)C(=O)Nc1ccc2[nH]ccc2c1,7.364%,17.17%,-23.08%
Cc1noc(C)c1CN1CC[C@H]2O[C@@H](C(=O)N3CCCC3)CC[C@H]21,-,5.537%,-
O=C(c1cc[nH]n1)N1CC[C@@H]2CN(Cc3ccccc3)S(=O)(=O)[C@@H]2CC1,-,-91.7%,-
Cn1ccnc1-c1nccn1-c1cccc(CN2CCCC2)c1,1.173%,11.73%,-
Cc1cc(C)cc(CN2CCN(Cc3cccc(CCN)c3)CC2=O)c1,30.2%,8.184%,-4.068%
CSCc1cccc(S(=O)(=O)Nc2cc(C)on2)c1,-2.794%,12.66%,4.991%
CS(=O)(=O)N1CCN(C(=O)c2[nH]c3ccc(Cl)cc3c2Cl)CC1,8.795%,7.542%,12.75%
Cn1ccc(C(=O)NCCOc2ccc3c(c2)CCC3)cc1=O,13.79%,13.7%,13.51%
CN(C)CCNc1cc(-c2ncccc2Cl)c2cc[nH]c2n1,-0.3821%,-2.892%,3.43%
CO[C@H]1C(=O)N(C)C2(CCNCC2)[C@@H]1C(=O)Nc1ccccc1,47.74%,12.88%,2.272%
Cc1cc(NC(=O)c2ccc(F)cc2Cl)n(C)n1,-26.14%,2.326%,-10.78%
COC(=O)N1CCCN(C(=O)NCc2ccc(Cl)s2)CC1,-3.461%,13.89%,-
CCCNC(=O)CCC(=O)N1CCC(c2noc3cc(F)ccc23)CC1,9.612%,8.696%,0.7169%
NC(=O)N1CCC2(CC1)CC(=O)N(CC1CCCO1)c1ccccc12 (stereo not given),-5.978%,15.69%,9.862%
CNC(=O)CCc1cc(C2CCCN2C(=O)CO)nc(C)n1 (stereo not given),-13.46%,19.18%,10.28%
COc1ccc2cccc(CC(=O)NCc3nccc(N)n3)c2c1,-1.609%,13.03%,26.46%
CCCNC(=O)CCC(=O)Nc1cc2sc(C)nc2cc1OC,9.368%,15.6%,-8.855%
Cc1nc(-c2nc(C(=O)NC3CC3)c3ccccn23)cn1C(C)C,-0.01146%,11.14%,10.34%
Cc1cc(C(=O)NCC2(C(N)=O)CCOCC2)nn1C(C)(C)C,0.9869%,15.28%,-12.37%
CC(C)n1nc(CN2CCCC2)c2c1CN(CC1CC1)CC2,-,13.66%,-

Repeated from the top, 3 entries:

SMILES	Mtb heat-shock	LdMetRS	Mtb growth Cornell
CC(C)N1CCCC(C(=O)NCCc2csc(-c3ccncc3)n2)C1 (stereo not given)	-19.57%	7.902%	-0.6779%
Cn1c(CN2CCOCC2)nnc1C1CCCN(CC(N)=O)C1 (stereo not given)	-2.68%	5.495%	-
NCC1(CN2CCOCC2)CCCCC1	-43.68%	-0.274%	-